This is an account of results in publication PMC9378861, “Formation and metabolism of 6-(1-acetol)-8-(1-acetol)-rutin in foods and in vivo, and their cytotoxicity” (Frontiers in Nutrition, 2022).

A short description of series [1]: Formation of rutin-MGO adducts under simulated physiological condition (HPLC-DAD). As to conditions: 0.5 mM rutin + 0.5 mM MGO, 37°C, PBS pH 7.4, reaction time 24 h.
For series [2] the following is noted: samples with codes 1, 3 and 5-9; cited from earlier work.

`CC(=O)C(O)c1c(O)c(C(O)C(C)=O)c2oc(-c3ccc(O)c(O)c3)c(OC3OC(COC4OC(C)C(O)C(O)C4O)C(O)C(O)C3O)c(=O)c2c1O` (centres unmarked) [Adduct A, 6-(1-acetol)-8-(1-acetol)-rutin]: the “Formation level of adduct” value in series [1] is 20.61 µM. Take `CC(=O)C(=O)c1c(O)c(C(=O)C(C)=O)c2oc(-c3ccc(O)c(O)c3)c(O[C@@H]3O[C@H](CO[C@@H]4O[C@@H](C)[C@H](O)[C@@H](O)[C@H]4O)[C@@H](O)[C@H](O)[C@H]3O)c(=O)c2c1O` [6-(1,2-propanedione)-8-(1,2-propanedione)-rutin]: in series [1], the “Formation level of adduct” value is 53.35 µM. In addition, the “Content of oxidized adduct in commercial food samples, range” value (“Content of oxidized adduct” below) in series [2] is 0.29 to 2.79 mg/kg. For the compound `CC(=O)C(=O)c1c(O)c(C(O)C(C)=O)c2oc(-c3ccc(O)c(O)c3)c(OC3OC(COC4OC(C)C(O)C(O)C4O)C(O)C(O)C3O)c(=O)c2c1O` (centres unmarked) [6-(1,2-propanedione)-8-(1-acetol)-rutin], in series [1], the “Formation level of adduct” value was 20.49 µM. Also, in series [2], the “Content of oxidized adduct” value is 0.15 to 1.43 mg/kg. On to `CC(=O)C(=O)c1c(O)c(C(O)C(C)=O)c(O)c2c(=O)c(O[C@@H]3O[C@H](CO[C@@H]4O[C@@H](C)[C@H](O)[C@@H](O)[C@H]4O)[C@@H](O)[C@H](O)[C@H]3O)c(-c3ccc(O)c(O)c3)oc12` (some centres unmarked) [6-(1-acetol)-8-(1,2-propanedione)-rutin], for which, in series [1], the “Formation level of adduct” value is 21.18 µM. Also, in series [2], the “Content of oxidized adduct” value is 0 to 2.43 mg/kg.

For the compound `CC(=O)C(O)c1c(O)c(C(O)C(C)=O)c2oc(-c3ccc(O)c(O)c3)c(OC3OC(COC4OC(C)C(O)C(O)C4O)C(O)C(O)C3O)c(=O)c2c1O` (centres unmarked) [Adduct B, 6-(1-acetol)-8-(1-acetol)-rutin], the “Formation level of adduct” value in series [1] was 28.67 µM.
